Measured values published in article PMC7862700.
The list shows a part of the results. The exact form of the protein is not confirmed.

biological target: T1, ETS1 (UniProt P14921); test: DAPPL (digital affinity profiling via proximity ligation, sequencing); conditions: 10 mM Tris-HCl pH 7.5, 50 mM NaCl, 1 mM DTT, 4% glycerol, room temperature, 30 min; GST-TFs on glutathione beads, 16-mer random dsDNA library, 0.1% …; high values mean tight binding; double strand, one strand shown; scale: fold enrichment (6-mer frequency, TF over GST control)
T1 sequence: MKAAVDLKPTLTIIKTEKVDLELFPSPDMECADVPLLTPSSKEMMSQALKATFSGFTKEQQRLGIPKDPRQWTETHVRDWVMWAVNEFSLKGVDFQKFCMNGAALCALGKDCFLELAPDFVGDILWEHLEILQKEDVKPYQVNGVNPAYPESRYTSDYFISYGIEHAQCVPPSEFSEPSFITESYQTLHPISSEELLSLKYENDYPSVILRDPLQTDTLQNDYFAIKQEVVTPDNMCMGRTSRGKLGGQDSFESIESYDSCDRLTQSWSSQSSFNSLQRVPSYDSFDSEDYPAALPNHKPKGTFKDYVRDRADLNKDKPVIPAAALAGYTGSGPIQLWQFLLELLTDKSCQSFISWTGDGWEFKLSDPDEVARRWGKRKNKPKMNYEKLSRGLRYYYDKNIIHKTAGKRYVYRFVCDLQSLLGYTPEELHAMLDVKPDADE

Row | Sequence | binding signal
1 | GACTCC | 1.37
2 | TAAATT | 1.22
3 | CGAATC | 0.935
4 | CTGTGC | 1.25
5 | CTGCGT | 1.14
6 | ATATCA | 1.2
7 | CATAAT | 1.09
8 | GCTATG | 1.19
9 | CATCCT | 1.65
10 | TTGCTG | 1.21
11 | TTAGCA | 1.19
12 | AGCTCT | 1.15
13 | CTACCG | 1.49
14 | TTCGAC | 1.51
15 | ACTGAC | 1.32
16 | TAGCCT | 1.25
17 | TGCCGA | 1.1
18 | CCCTGT | 1.22
19 | TATATC | 1.68
20 | TTTGAC | 1.55

Exported with each value named: part of the list above.
ACTGAC
  binding signal = 1.32
TAGCCT
  binding signal = 1.25

Additional records follow.

Row | Sequence | binding signal
21 | CATACA | 1.08
22 | GCTCTA | 1.19
23 | ACGGAA | 1.75
24 | CCTCCA | 1.29
25 | AACTAG | 1.08
26 | TTCCCA | 1.21
27 | ACTACA | 1.14
28 | AGCGTC | 0.96
29 | TGATAT | 1.14
30 | CCGCTT | 1.75
31 | ACAACC | 1.24
32 | CACAAC | 1.21
33 | ACCCCT | 1.23
34 | TGACTA | 1.13
35 | GCCCAA | 1.06
36 | CAACCC | 1.26
37 | CCGGAC | 1.33
38 | TGTACG | 1.22
39 | TTCAAT | 1.39
40 | CTCAGC | 1.26
